Source: paper PMC11574364
Construct, isoform or probe ends are uncertain for at least one entry. For some of these results: Where a protein sequence is shown, tags need not be part of it.

What was measured:
Test in all cases: human ORF protein microarray
[1] = target: T1, ZNF266 (Homo sapiens) (UniProt Q14584); details: 5' phosphate; Domain array: 20 mM Tris-HCl pH 7.4, 200 mM KCl, 0.2 mM EDTA, 0.05% NP40, 2 ug/ul heparin, overnight 4 C. ORF array: PBS pH 7.0 with RNase inhibitor, 100 ng RNA, 1 h.; recombinant protein; protein details: N-terminal GST-6xHis; label: internal DY647 at G18; letters put together from the description
T1 sequence (looked up, limits assumed): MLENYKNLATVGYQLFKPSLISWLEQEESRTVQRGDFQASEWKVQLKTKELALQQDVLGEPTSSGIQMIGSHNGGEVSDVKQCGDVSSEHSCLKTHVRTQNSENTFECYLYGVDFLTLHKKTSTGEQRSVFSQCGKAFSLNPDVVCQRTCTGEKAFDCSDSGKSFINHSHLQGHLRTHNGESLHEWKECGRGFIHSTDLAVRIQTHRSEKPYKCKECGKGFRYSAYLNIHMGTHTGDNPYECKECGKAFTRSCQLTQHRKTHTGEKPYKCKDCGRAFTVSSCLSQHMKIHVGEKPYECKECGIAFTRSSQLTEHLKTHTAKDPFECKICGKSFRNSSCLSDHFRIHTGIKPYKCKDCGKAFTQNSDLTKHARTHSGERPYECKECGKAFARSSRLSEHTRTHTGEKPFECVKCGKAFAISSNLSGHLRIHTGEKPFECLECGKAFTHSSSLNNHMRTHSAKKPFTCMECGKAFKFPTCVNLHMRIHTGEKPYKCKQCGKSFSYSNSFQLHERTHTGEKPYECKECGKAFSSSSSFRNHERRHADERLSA

[2] = target: CSTF1 (Homo sapiens) (UniProt Q05048); details: 5' phosphate; Domain array: 20 mM Tris-HCl pH 7.4, 200 mM KCl, 0.2 mM EDTA, 0.05% NP40, 2 ug/ul heparin, overnight 4 C. ORF array: PBS pH 7.0 with RNase inhibitor, 100 ng RNA, 1 h.; recombinant protein; protein details: N-terminal GST-6xHis; label: internal DY647 at G18; letters put together from the description
[3] = target: T2, CCR3 (Homo sapiens) (UniProt P51677); details: 5' phosphate; Domain array: 20 mM Tris-HCl pH 7.4, 200 mM KCl, 0.2 mM EDTA, 0.05% NP40, 2 ug/ul heparin, overnight 4 C. ORF array: PBS pH 7.0 with RNase inhibitor, 100 ng RNA, 1 h.; recombinant protein; protein details: N-terminal GST-6xHis; label: internal DY647 at G18; letters put together from the description
T2 sequence (looked up, limits assumed): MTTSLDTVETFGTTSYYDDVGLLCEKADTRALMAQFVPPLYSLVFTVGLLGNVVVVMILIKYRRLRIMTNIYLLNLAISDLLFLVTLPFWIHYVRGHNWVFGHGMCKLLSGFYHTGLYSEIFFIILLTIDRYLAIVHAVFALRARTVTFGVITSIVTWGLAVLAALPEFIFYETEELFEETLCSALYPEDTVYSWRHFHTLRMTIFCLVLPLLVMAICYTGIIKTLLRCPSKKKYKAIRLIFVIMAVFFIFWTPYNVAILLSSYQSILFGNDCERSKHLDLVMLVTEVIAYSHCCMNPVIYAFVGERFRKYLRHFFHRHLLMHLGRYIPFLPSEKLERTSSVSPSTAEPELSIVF

[4] = target: T3, NCAPH2 (Homo sapiens) (UniProt Q6IBW4); details: 5' phosphate; amino-C6 U at position 18; Domain array: 20 mM Tris-HCl pH 7.4, 200 mM KCl, 0.2 mM EDTA, 0.05% NP40, 2 ug/ul heparin, overnight 4 C. ORF array: PBS pH 7.0 with RNase inhibitor, 100 ng RNA, 1 h.; recombinant protein; protein details: N-terminal GST-6xHis; label: internal Cy5 or DY647
T3 sequence (looked up, limits assumed): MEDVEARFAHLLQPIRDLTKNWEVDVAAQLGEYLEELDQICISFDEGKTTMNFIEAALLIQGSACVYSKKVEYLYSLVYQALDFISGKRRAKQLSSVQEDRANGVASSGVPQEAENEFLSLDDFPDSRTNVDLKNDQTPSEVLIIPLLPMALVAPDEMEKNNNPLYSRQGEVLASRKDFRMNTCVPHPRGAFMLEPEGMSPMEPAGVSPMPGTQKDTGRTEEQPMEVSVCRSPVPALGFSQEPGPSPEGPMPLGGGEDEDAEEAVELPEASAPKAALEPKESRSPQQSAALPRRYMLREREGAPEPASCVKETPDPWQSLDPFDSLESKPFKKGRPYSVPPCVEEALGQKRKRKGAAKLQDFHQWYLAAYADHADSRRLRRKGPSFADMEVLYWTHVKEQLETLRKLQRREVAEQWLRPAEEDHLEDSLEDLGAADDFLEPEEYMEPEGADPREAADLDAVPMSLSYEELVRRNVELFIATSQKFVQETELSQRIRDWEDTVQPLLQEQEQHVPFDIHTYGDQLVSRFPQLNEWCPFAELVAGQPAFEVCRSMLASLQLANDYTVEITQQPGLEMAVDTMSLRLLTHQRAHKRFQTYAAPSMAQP

[5] = target: T4, KLHL6 (Homo sapiens) (UniProt Q8WZ60); details: 5' phosphate; amino-C6 U at position 18; Domain array: 20 mM Tris-HCl pH 7.4, 200 mM KCl, 0.2 mM EDTA, 0.05% NP40, 2 ug/ul heparin, overnight 4 C. ORF array: PBS pH 7.0 with RNase inhibitor, 100 ng RNA, 1 h.; recombinant protein; protein details: N-terminal GST-6xHis; label: internal Cy5 or DY647
T4 sequence (looked up, limits assumed): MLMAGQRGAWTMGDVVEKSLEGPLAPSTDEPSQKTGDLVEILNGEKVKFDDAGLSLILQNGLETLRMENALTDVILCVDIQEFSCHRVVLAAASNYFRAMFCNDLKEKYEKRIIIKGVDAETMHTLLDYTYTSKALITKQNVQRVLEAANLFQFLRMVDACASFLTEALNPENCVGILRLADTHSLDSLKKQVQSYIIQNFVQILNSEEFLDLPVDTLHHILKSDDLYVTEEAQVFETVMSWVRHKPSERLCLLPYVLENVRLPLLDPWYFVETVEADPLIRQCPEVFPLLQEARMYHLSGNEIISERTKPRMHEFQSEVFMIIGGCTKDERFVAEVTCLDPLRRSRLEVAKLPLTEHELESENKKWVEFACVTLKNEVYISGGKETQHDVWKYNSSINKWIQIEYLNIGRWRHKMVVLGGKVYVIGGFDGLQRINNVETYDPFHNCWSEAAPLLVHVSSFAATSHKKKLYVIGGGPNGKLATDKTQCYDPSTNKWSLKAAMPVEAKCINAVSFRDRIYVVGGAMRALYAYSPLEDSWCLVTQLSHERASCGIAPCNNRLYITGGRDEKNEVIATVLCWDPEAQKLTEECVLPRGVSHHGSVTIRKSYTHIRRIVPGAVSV

[6] = target: DSCR1L1 (Homo sapiens) (UniProt Q14206); details: 5' phosphate; amino-C6 U at position 18; Domain array: 20 mM Tris-HCl pH 7.4, 200 mM KCl, 0.2 mM EDTA, 0.05% NP40, 2 ug/ul heparin, overnight 4 C. ORF array: PBS pH 7.0 with RNase inhibitor, 100 ng RNA, 1 h.; recombinant protein; protein details: N-terminal GST-6xHis; label: internal Cy5 or DY647
[7] = target: T5, RNASE1 (Homo sapiens) (UniProt P07998); details: 5' phosphate; amino-C6 U at position 18; Domain array: 20 mM Tris-HCl pH 7.4, 200 mM KCl, 0.2 mM EDTA, 0.05% NP40, 2 ug/ul heparin, overnight 4 C. ORF array: PBS pH 7.0 with RNase inhibitor, 100 ng RNA, 1 h.; recombinant protein; protein details: N-terminal GST-6xHis; label: internal Cy5 or DY647
T5 sequence (looked up, limits assumed): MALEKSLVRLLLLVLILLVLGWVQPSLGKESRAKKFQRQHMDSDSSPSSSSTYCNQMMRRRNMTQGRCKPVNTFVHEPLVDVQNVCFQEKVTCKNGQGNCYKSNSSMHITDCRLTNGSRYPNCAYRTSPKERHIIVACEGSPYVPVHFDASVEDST

“CAGUGCAAUGAUGAAAGGGCAU [miR-130b (internal labeling)]”: binds [1]; binds [2].
“UAGCUUAUCAGACUGAUGUUGA [miR-21 (internal labeling)]”: binds [3].
“UGAGGUAGUAGGUUGUGUGGUU [let-7b (internal labeling)]”: binds [4]; binds [5]; binds [6]. “UGAGGUAGUAGGUUGUGUGGUU [let-7b (internal labeling)]”: binds [7].
